# Library screening results

Measurements from “University of Dundee, Small-Polar-MMV Screening Library” (2021), ChEMBL document CHEMBL3988442.

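Viability assay of Plasmodium falciparum sporozoites; the read-out is not stated. The concentration is filed as 10 mM, unlikely as a test dose, so the dose is not known. The record gives no direction; compounds that gave an IC50 in retests scored well above the rest, so higher reads as lower viability. Strong results were mostly tested again. About 34,000 compounds were tested under these conditions; 0.84% (about 280) showed 50% or more at least once.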

Values are the deposited “Percent Effect”, in %. The controls that fix the scale are not given in the record; negative values are as filed. Compounds were drawn at random from those tested, without regard to their results. Two or more numbers in one place are separate tests of the same structure; such repeats can differ widely.

structure	Percent Effect
Cc1ccc2c(n1)N(CCN(C)C)CCN(C(=O)N1CCOCC1)C2	-13.28
CCC(C)(C)C(=O)N1CCN(C2=NCC(C)S2)CC1 (stereo not drawn)	2.487
CC(Sc1nnnn1C1CCOCC1)C(=O)NC1CCCCC1 (stereo not drawn)	-4.721
O=C(c1ccc2c(c1)CCCC2)N1CCN(c2cnccn2)CC1	11.89
Cc1nc(CC(=O)N2CCC(c3nn(C)c4ncccc34)CC2)cs1.Cl	3.729
COc1c(C)cnc(CSc2nnc(N3CCCC3)s2)c1C	-12.99
N#Cc1ccc(NCCC(=O)N2CCCc3ccccc32)nc1	-11.08
COCCc1noc(CN2CCCC(Cn3cncn3)C2)n1 (stereo not drawn)	0.8104
Cc1ccc(-c2nnc(CN3CCCC(Cn4cncn4)C3)o2)cc1 (stereo not drawn)	-6.48
[H][C@]12CN(Cc3ccc(OC)cc3)C[C@@]1([H])S(=O)(=O)CC[C@@H]2C(=O)NC	-2.706
COCC(=O)N1CCc2nc(C)nc(NC(C)C)c2CC1	12.07
CCCN1CCC2(CC1)CN(C(=O)c1cccnc1)c1ccc(F)cc12.O=C(O)C(F)(F)F.O=C(O)C(F)(F)F	2.194
NCC1CCC2(CCN(C(=O)c3ccccn3)CC2)CO1.O=C(O)C(F)(F)F.O=C(O)C(F)(F)F (stereo not drawn)	4.619
[H][C@]1([C@@]2(C)CC[C@H](O)C(C)(C)O2)CC2(CCN(c3ncccn3)CC2)CO1	8.341
O=C(CCn1ccnc1)N1C[C@@H](O)[C@H](Oc2cccc(F)c2)C1	18.76
CCC(C)c1noc(C2CCN(C(=O)c3cccs3)CC2)n1 (stereo not drawn)	0.4362
CC(C)C(CCO)NC(=O)Nc1cc(F)ccc1-n1cccn1 (stereo not drawn)	-22.53
Cc1cnc(N2CCC3(CCN(CC4CC4)C3=O)CC2)nc1	7.535
O=C(NCCCn1cccn1)C1(c2ccc(F)cc2)CC1	-5.508 & -0.1181 & -14.92
Cn1cc(C(=O)N2CCCC2c2ccc3c(c2)OCCO3)ccc1=O (stereo not drawn)	5.799
Cn1nc(Cn2ccnc2)c2c1CN(C(=O)c1ccc[nH]1)C2	11.72
Cc1ocnc1C(=O)N1CCCN(Cc2cscn2)CC1	6.701
COc1c(CNCc2cccc(Cn3cccn3)c2)c(C)nn1C	6.55
CC(=O)N1CCC(Oc2ccc(C#N)cn2)CC1	-4.841
COc1c(C(=O)N2CCNC(=O)C2)cnc2c1c(C)nn2C	-4.116
O=C(NCc1cccc2cccnc12)N1CCC(n2cncn2)CC1	1.909
COc1cccc(OCC(=O)NS(=O)(=O)c2ccc(C)s2)c1	4.852
CC(C)OC(=O)CN1N=C(C(=O)N2CCCC2)S(=O)(=O)c2ccccc21	3.229 & -0.1814
CCc1cc(O)n2nc(C3CCN(C(=O)c4cccnc4)CC3)cc2n1	5.51

Some entries from above, unchanged:

structure,Percent Effect
Cc1ocnc1C(=O)N1CCCN(Cc2cscn2)CC1,6.701
N#Cc1ccc(NCCC(=O)N2CCCc3ccccc32)nc1,-11.08
CCC(C)c1noc(C2CCN(C(=O)c3cccs3)CC2)n1 (stereo not drawn),0.4362